Results on one molecule are retold here after article PMC7999926.

No constants are given. Whether binding was seen depends on the method and setting. Binding seen in cells or lysates may run through a third protein. Some results given as binding are weak or reduced against the parent protein; the word gives no strength. Tags and fused reporters may be left off the sequences shown.

The test addresses T1, interferon regulatory factor 3 (IRF3)-FLAG (UniProt Q14653).
T1 sequence: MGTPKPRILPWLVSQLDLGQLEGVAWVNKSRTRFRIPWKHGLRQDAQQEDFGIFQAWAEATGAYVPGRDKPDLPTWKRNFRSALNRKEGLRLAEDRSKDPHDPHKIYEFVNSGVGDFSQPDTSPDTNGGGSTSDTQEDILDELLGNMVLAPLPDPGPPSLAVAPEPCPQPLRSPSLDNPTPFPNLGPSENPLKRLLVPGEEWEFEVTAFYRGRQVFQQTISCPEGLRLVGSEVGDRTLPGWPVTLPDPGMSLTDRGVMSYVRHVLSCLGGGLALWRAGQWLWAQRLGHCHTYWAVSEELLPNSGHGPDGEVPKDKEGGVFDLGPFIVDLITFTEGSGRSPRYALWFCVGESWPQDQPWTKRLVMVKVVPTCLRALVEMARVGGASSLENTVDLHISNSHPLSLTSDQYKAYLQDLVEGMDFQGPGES
In words: co-IP.

B1: Tank-binding kinase 1 (TBK1)-MYC (enzyme, UniProt Q9UHD2 1-729)
chain: MQSTSNHLWLLSDILGQGATANVFRGRHKKTGDLFAIKVFNNISFLRPVDVQMREFEVLKKLNHKNIVKLFAIEEETTTRHKVLIMEFCPCGSLYTVLEEPSNAYGLPESEFLIVLRDVVGGMNHLRENGIVHRDIKPGNIMRVIGEDGQSVYKLTDFGAARELEDDEQFVSLYGTEEYLHPDMYERAVLRKDHQKKYGATVDLWSIGVTFYHAATGSLPFRPFEGPRRNKEVMYKIITGKPSGAISGVQKAENGPIDWSGDMPVSCSLSRGLQVLLTPVLANILEADQEKCWGFDQFFAETSDILHRMVIHVFSLQQMTAHKIYIHSYNTATIFHELVYKQTKIISSNQELIYEGRRLVLEPGRLAQHFPKTTEENPIFVVSREPLNTIGLIYEKISLPKVHPRYDLDGDASMAKAITGVVCYACRIASTLLLYQELMRKGIRWLIELIKDDYNETVHKKTEVVITLDFCIRNIEKTVKVYEKLMKINLEAAELGEISDIHTKLLRLSSSQGTIETSLQDIDSRLSPGGSLADAWAHQEGTHPKDRNVEKLQVLLNCMTEIYYQFKKDKAERRLAYNEEQIHKFDKQKLYYHATKAMTHFTDECVKKYEAFLNKSEEWIRKMLHLRKQLLSLTNQCFDIEEEVSKYQEYTNELQETLPQKMFTASSGIKHTMTPIYPSSNTLVEMTLGMKKLKEEMEGVVKELAENNHILERFGSLTMDGGLRNVDCL
Regarding B1, the binding entry is recorded as “binds”.
